{"source": "PubChem BioAssay AID720505 (Drosophila RNAi Screening Center, 2013)", "assay": "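Genes needed for store-operated calcium entry in fly cells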 (primary screen)", "cells": "Drosophila S2R+ cells", "knock-down reagent": "long dsRNA against Drosophila genes", "conditions": "thapsigargin (2 µM) in calcium-free buffer to empty internal stores, then 2 mM calcium added back", "measured": "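Stores emptied by 2 µM thapsigargin without calcium, then 2 mM calcium re-added; fluo-4 fluorescence followed by FLIPR in 384-well plates, per-well averaged endpoint, raw; two screen passes, some wells retested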", "direction": "calcium signal: higher = more calcium entry after store depletion", "active means": "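Knock-downs counted as hits when calcium entry dropped relative to STIM1 positive and Rho1 negative controls present on each plate; roughly 1500 genes called, with reductions of differing size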", "meaning of the calls": "active = called as lowering calcium entry; inactive = not called", "note": "The deposit covers about 20,000 reagents; this is an unselected part of those that have a named target and a result. Of all reagents, about 2,100 (10%) are marked active. 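Raw plate signals without normalisation; calls rest on control-based scores that were not deposited; replicate 2 separates called from uncalled poorly.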 The record does not give: the amount of reagent, the time to read-out."}
{"gene":"Cals","dsRNA":"DRSC17196","calcium signal, replicate 1":124,"calcium signal, replicate 2":105,"activity call":"inactive"}
{"gene":"Cals","dsRNA":"DRSC21661","calcium signal, replicate 1":117,"calcium signal, replicate 2":136,"activity call":"inactive"}
{"gene":"Naam","dsRNA":"DRSC16252","calcium signal, replicate 1":148,"calcium signal, replicate 2":159,"activity call":"inactive"}
{"gene":"Osi15","dsRNA":"DRSC12178","calcium signal, replicate 1":107,"calcium signal, replicate 2":108,"activity call":"inactive"}
{"gene":"CG1724","dsRNA":"DRSC20548","calcium signal, replicate 1":202,"calcium signal, replicate 2":81.4,"activity call":"inactive"}
{"gene":"pea","dsRNA":"DRSC07120","calcium signal, replicate 1":124,"calcium signal, replicate 2":127,"activity call":"inactive"}
{"gene":"Ns1","dsRNA":"DRSC15529","calcium signal, replicate 1":135,"calcium signal, replicate 2":178,"activity call":"inactive"}
{"gene":"wit","dsRNA":"DRSC08741","calcium signal, replicate 1":108,"calcium signal, replicate 2":114,"activity call":"inactive"}

Next part; the last 2 above are carried over.
{"gene":"Ns1","dsRNA":"DRSC15529","calcium signal, replicate 1":135,"calcium signal, replicate 2":178,"activity call":"inactive"}
{"gene":"wit","dsRNA":"DRSC08741","calcium signal, replicate 1":108,"calcium signal, replicate 2":114,"activity call":"inactive"}
{"gene":"ana","dsRNA":"DRSC07579","calcium signal, replicate 1":187,"calcium signal, replicate 2":103,"activity call":"inactive"}
{"gene":"CG12880","dsRNA":"DRSC14568","calcium signal, replicate 1":127,"calcium signal, replicate 2":117,"activity call":"inactive"}
{"gene":"CG16868","dsRNA":"DRSC06633","calcium signal, replicate 1":180,"calcium signal, replicate 2":99.7,"activity call":"inactive"}
{"gene":"CG1998","dsRNA":"DRSC19829","calcium signal, replicate 1":93.1,"calcium signal, replicate 2":97.2,"activity call":"inactive"}
